The source of these data is PMC5662737, “Structural and mechanistic insights into ATRX-dependent and -independent functions of the histone chaperone DAXX” (Nature Communications, 2017).

Chains of the proteins cited; added tags and fusions are not shown. Lines headed by an entry give the natural chain unless they say otherwise; changes in a name come on top.
UniProt Q9UER7: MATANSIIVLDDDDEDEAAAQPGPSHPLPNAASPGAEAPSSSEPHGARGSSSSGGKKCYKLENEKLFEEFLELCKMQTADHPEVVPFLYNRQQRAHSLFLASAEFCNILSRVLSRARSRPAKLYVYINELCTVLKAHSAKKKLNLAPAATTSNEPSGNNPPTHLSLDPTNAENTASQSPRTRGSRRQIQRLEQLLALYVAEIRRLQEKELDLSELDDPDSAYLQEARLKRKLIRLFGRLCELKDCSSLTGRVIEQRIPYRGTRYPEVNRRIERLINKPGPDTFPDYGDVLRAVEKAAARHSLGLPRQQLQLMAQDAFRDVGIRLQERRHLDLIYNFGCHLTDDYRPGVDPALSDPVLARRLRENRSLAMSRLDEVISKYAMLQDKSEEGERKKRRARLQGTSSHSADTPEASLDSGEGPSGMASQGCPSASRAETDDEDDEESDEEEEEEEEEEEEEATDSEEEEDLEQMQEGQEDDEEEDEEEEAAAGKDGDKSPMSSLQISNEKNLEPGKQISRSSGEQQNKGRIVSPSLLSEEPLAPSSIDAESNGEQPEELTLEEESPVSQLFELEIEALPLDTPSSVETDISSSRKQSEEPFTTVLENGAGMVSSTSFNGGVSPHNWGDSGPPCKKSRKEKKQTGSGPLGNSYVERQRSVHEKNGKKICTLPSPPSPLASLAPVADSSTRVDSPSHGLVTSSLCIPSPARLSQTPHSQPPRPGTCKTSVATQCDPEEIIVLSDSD
UniProt O35613: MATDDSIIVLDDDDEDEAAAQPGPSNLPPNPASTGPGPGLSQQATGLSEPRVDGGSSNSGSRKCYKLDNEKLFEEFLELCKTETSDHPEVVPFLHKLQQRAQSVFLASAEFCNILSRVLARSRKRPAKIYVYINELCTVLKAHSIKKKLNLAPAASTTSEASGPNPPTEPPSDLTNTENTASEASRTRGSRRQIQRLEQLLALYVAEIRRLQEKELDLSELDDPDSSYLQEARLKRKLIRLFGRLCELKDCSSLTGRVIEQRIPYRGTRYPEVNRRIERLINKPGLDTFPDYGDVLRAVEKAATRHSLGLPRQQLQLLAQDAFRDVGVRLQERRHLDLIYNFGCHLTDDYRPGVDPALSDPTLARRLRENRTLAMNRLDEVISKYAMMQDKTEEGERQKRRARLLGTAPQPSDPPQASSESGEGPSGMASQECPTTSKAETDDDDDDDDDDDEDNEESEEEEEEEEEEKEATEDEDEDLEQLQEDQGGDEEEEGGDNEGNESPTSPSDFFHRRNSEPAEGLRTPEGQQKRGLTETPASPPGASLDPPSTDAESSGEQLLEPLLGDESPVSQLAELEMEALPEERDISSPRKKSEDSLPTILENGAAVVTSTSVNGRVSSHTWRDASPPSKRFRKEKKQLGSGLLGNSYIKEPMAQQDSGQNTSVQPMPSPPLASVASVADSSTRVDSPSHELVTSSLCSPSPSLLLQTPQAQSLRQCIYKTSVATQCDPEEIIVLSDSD
UniProt Q13263: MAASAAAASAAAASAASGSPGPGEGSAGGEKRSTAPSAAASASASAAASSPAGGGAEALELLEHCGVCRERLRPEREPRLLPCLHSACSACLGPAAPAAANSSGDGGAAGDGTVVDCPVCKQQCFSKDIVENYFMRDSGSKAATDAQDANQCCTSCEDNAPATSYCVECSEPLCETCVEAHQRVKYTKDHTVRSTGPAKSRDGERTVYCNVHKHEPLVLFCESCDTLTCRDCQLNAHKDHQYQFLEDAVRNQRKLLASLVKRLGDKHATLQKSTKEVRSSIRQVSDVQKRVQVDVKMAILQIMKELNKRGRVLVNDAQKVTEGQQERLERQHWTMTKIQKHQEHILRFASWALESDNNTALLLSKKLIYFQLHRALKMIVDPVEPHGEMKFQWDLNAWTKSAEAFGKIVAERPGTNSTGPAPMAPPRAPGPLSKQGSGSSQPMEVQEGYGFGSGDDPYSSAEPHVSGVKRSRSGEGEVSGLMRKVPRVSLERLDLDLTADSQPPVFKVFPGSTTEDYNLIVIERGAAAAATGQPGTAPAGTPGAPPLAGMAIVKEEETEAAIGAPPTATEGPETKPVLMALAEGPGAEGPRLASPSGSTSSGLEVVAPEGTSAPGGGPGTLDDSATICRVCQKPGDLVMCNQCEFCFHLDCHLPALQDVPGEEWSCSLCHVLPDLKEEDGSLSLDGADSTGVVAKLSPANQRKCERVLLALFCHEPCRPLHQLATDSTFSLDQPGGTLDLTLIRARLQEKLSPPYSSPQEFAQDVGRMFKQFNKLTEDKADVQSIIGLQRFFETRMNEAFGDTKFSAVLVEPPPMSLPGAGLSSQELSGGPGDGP
UniProt O09106: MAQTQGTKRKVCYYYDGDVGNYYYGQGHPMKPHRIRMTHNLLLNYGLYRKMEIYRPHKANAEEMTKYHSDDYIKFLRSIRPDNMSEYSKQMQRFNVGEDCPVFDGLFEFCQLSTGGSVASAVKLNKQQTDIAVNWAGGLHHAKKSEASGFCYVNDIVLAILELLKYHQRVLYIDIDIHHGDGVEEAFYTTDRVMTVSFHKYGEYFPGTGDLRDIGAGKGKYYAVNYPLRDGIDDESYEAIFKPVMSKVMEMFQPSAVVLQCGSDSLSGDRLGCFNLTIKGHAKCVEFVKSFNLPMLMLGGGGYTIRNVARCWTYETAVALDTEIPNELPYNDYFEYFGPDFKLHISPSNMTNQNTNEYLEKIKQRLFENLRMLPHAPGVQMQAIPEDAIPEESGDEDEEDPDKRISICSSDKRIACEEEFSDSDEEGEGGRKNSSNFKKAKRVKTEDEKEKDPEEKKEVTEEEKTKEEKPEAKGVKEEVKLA

Results are given in words; binding and its absence hold for the method and conditions named. Binding seen in cells or lysates may run through a third protein. Some binding calls cover weakened binding; strength is not graded here. For some assays here: Tags and fused reporters may be left off the sequences shown.

In assay [1] the target is FLAG-tagged human DAXX, transiently expressed in 293T cells (pRK5-FLAG-hDAXX) (human) (UniProt Q9UER7). Description: co-IP; anti-FLAG M2 IP from lysate of transiently transfected 293T cells; 300 mM KCl, 0.12% Triton X-100, 50 µg/ml ethidium bromide; 3×FLAG peptide elution; immunoblot.
For assay [2], the target named is T1, GST-tagged murine ATRX DBM, wild type (mouse) (UniProt Q61687).
T1 sequence: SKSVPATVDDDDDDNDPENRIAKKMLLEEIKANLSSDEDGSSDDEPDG
Description: pull-down; GST-tagged proteins on glutathione beads incubated with MEF nuclear extract (200 mM KCl), 4 °C, 4 h; washes with 350 mM KCl, 0.01% NP-40; immunoblot; only the target purified.

Assay [3] concerns the target FLAG-tagged murine DAXX Y130A (mouse) (UniProt O35613). As to the kind of experiment: co-IP; anti-FLAG M2 IP of FLAG-mDAXX from stably transduced MEFs (Daxx−/−); 300 mM KCl, 0.12% Triton X-100, 50 µg/ml ethidium bromide; 3×FLAG peptide elution; immunoblot.
Assay [4] addresses FLAG-tagged murine DAXX, wild type (mouse) (UniProt O35613). The description is as above.
Assay [5] concerns the target FLAG-tagged murine DAXX F93A (mouse) (UniProt O35613). The assay is described as above.

Take “human KAP1, endogenous in 293T cells (from UniProt Q13263 1-835)”: the binding entry in assay [1] is “binds”. “mouse DAXX, endogenous, full length (from UniProt O35613 1-739)”: the binding result in assay [2] is reported as “binds”. As for “mouse HDAC1, endogenous (from UniProt O09106 1-482) (enzyme)”, the binding result in assay [3], in assay [4] and in assay [5] was “binds” in each case.
